Data taken from US9335538B2, “Electrowetting display device and dye composition for electrowetting display” (FUJIFILM CORPORATION, priority 2012, dated 2016).

Key:
[1] = Electrowetting test cell: responsiveness and back flow of dye ink on application of voltage; conditions: for Back flow ratio [%]: after 5 seconds in the voltage on state
Experimental: (§1) To a normal decane solution, which was obtained by bubbling argon gas into normal decane (n-decane) such that the content of dissolved oxygen was 10 ppm or less, the exemplary compounds 5, 15, or 23 was added such that the dye concentration was 40% by mass or 10% by mass, as shown in Table 2 and Table 3 below. In this way, the dye inks used as oils were prepared.
(§2) On a surface of the ITO film of a glass substrate (10 mm×10 mm) equipped with an indium tin oxide (ITO) film with a thickness of 100 nm as a transparent electrode, a fluorine-containing polymer (trade name: CYTOP, manufactured by Asahi Glass Co., Ltd., model number: CTL-809M) was coated such that the thickness was 600 nm, thereby forming a fluorine-containing polymer layer as a hydrophobic insulating film. Subsequently, on this fluorine-containing polymer layer, a frame-shaped silicone rubber wall which had been prepared by cutting out a tetrahedron having a size of 8 mm×8 mm×50 μm from the middle of a silicone rubber having a size of 1 cm×1 cm (a sealant having a thickness of 50 μm; SILI-US (trade name), manufactured by Fuso Rubber Co., Ltd.) was placed to form a display member. Into the region enclosed by this silicone rubber wall, the dye ink obtained as described above was injected such that the thickness became 4 μm. On the dye ink that had been injected, ethylene glycol was injected such that the thickness became 46 μm. On this assembly, a glass substrate equipped with an ITO film was further placed such that the ITO film faced the dye ink or the electrolyte aqueous solution, and was fixed.
To each of the ITO films (transparent electrodes) of the two glass substrates each equipped with an ITO film, a DC voltage of 100 V was applied (a minus voltage was applied to the ITO electrode on the side having thereon the fluorine-containing polymer (hydrophobic insulating film)) by using a signal generator, and the display cell (display cell 30 in FIG. 2) was observed. As a result, it was confirmed that the dye ink had moved toward one direction on the surface of the fluorine-containing polymer layer, and the area of the dye ink covering the fluorine-containing polymer layer was reduced. The responsiveness of the dye ink in this process, and the degree of the back flow phenomenon, when kept in the voltage on state as it was, were evaluated.
The reduction of the area by application of a voltage was evaluated based on the area shrinkage factor [%] calculated according to the following Equation (1), and the back flow phenomenon was evaluated based on the back flow ratio [%] calculated according to the following Equation (2). a) Response time [msec]=Time needed to reach the most shrink state from the initiation of application, when the application of a voltage is initiated from the voltage non-applying state b) Area shrinkage factor [%]=(Area of the dye ink when the dye ink shrinks at the most)/(Area of the dye ink before application of voltage)×100 Equation (1) c) Back flow ratio [%]=(Area of the dye ink after 5 seconds have past in the voltage on state)/(Area of the dye ink when the dye ink shrinks at the most)×100 Equation (2)

[2] = OD (image density) of dye ink in electrowetting test cell, spectroradiometer; conditions: at maximum absorption wavelength, per 1 μm-thickness of the oil layer
Experimental: as §1
as §2, with “Into the region enclosed by this silicone rubber wall, the dye ink obtained as described above was injected such that the thickness became 4 μm. On the dye ink that had been injected, ethylene glycol was injected such that the thickness became 46 μm. On this assembly, a glass substrate equipped with an ITO film was further placed such that the ITO film faced the dye ink or the electrolyte aqueous solution, and was fixed.” left out
Further, regarding the OD (image density), the OD value at the maximum absorption wavelength of the dye was measured using a spectroradiometer (trade name: SR-3, manufactured by TOPCON CORPORATION) and was evaluated. […]

CCCCCCC(Oc1ccc(C(C)(C)CC)cc1C(C)(C)CC)C(=O)NCC(C)c1nc2/c(=C\c3c(C)nn4nc(C(C)CNC(=O)C(CCCCCC)Oc5ccc(C(C)(C)CC)cc5C(C)(C)CC)[nH]c34)c(C)nn2n1 (centres unmarked) [Exemplary compound 5]
Response time ([1]; Dye density: 10% by mass in n-decane, DC voltage of 100 V): <200 ms | Area shrinkage [%] ([1]; Dye density: 10% by mass in n-decane, DC voltage of 100 V, 100% = not shrunk): 20% | Back flow ratio [%] ([1]; Dye density: 10% by mass in n-decane): 120% | Response time [mSec] ([1]; Dye density: 40% by mass in n-decane, DC voltage of 100 V): 200~1000 mSec | Area shrinkage factor [%] ([1]; Dye density: 40% by mass in n-decane, DC voltage of 100 V, 100% = not shrunk): 28% | Back flow ratio [%] ([1]; Dye density: 40% by mass in n-decane): 110% | OD ([2]; Dye density: 10% by mass): 0.53 | OD ([2]; Dye density: 40% by mass): 2.1
